Measured values as given in the supplement of paper PMC5949888.
Most values lie at the floor of the assay. Slopes are relative: functional sequences can read slightly below zero.

Each substance was assayed on Saccharomyces cerevisiae PS128 hsf1 delta, HSF1(1-493) fusion (assay: growth estimate (transactivation domain function in HSF1 fusion, heat-shock survival) (a.u. (slope of normalised read count over time)); higher = stronger growth at 37°C, i.e. more transactivation activity). Settings: library: random library.
Protocol: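 Random 60-nt DNA library encoding peptides of up to 20 aa, fused to the C-terminus of yeast HSF1 residues 1-493 (C-terminal TAD deleted) and expressed from the native HSF1 promoter on a CEN plasmid in hsf1-deleted S. cerevisiae PS128. Cells were selected at 37°C on -trp 5-FOA plates for 0, 2, 4, 6 and 8 days and amplicons were sequenced. Growth estimate is the slope of a robust linear fit of total-sum-normalised read counts (normalised to the first time point) over time, using at least 2 replicates. Sequences are classed functional (TAD activity) above a threshold of -0.13, set from stop-codon control sequences.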
For FTGTNTTLHFLDLVLRNANA, the growth estimate was < -0.25. With FTGVYKSTLTWWINTTSIRL the growth estimate was < -0.25. In the case of FTITMMRPRRIRSGRLRSRG, the growth estimate is reported as < -0.25. In the case of FTIVPFSEVNVGPGVHRT, the growth estimate is reported as < -0.25. With FTLLHENLLTCATTLLRLQV the growth estimate was < -0.25. FTLLMSQSA was tested, and the growth estimate was < -0.25. In the case of FTLPGFDVGLSRRVDQEINP, the growth estimate is reported as < -0.251. For FTLRELQIWLRSLLHCLNTR, the growth estimate was < -0.25. FTLRYP was tested, and the growth estimate was < -0.25. FTRLPSRQIPCLSVDRSFPG was tested, and the growth estimate was < -0.25. In the case of FTSEFEGLS, the growth estimate is reported as -0.144. For FTSGRHQGFGAPKRLMPPTR, the growth estimate was < -0.25. With FTSHAFYLQYPY the growth estimate was < -0.25. FTTGRTLAHCGIALWPHYAY was tested, and the growth estimate was < -0.25. For FTYVTGPPSLPLQYSEINP, the growth estimate was < -0.25. For FVCQES, the growth estimate was < -0.25. In the case of FVDPLMFRDVWSCTVL, the growth estimate is reported as < -0.25. In the case of FVDYPA, the growth estimate is reported as < -0.25. With FVE the growth estimate was < -0.25. With FVEAEMVISVEFGLWL the growth estimate was < -0.25. FVECLTWRDPGLNPSPCRCD was tested, and the growth estimate was < -0.25. FVGESYVRVKARGKKRTIKS was tested, and the growth estimate was < -0.25. For FVGGLPRN, the growth estimate was < -0.25. For FVGLG, the growth estimate was < -0.25. With FVGPQRPDVLKEQGKPGGK the growth estimate was < -0.25. For FVGPWLVAT, the growth estimate was < -0.25. In the case of FVGQARMDDRTGLCAL, the growth estimate is reported as < -0.25. With FVGSRVYIGAITGARGIGQG the growth estimate was < -0.25. For FVIKAPESLGRQSEFRISRC, the growth estimate was < -0.25. For FVILSLGLRTLSCVSKGGSP, the growth estimate was < -0.25. FVKQAASRFLYELSVS was tested, and the growth estimate was < -0.25. For FVKVPDC, the growth estimate was < -0.25. For FVLPIPQV, the growth estimate was < -0.25. In the case of FVLRYSSTERDGITA, the growth estimate is reported as < -0.25. With FVNFGDLFSISKLGSLCQRV the growth estimate was < -0.25. In the case of FVPL, the growth estimate is reported as < -0.25. In the case of FVRCTVIFRTRVR, the growth estimate is reported as < -0.25. FVRFFCSQSRETAVND was tested, and the growth estimate was < -0.25. In the case of FVRQTSSLMDWMLSSVISAL, the growth estimate is reported as < -0.25. For FVSKKLIRCRS, the growth estimate was < -0.25. With FVSSLPREDGVPRWWQAGAA the growth estimate was < -0.25. FVVLTQAAVAPM was tested, and the growth estimate was < -0.25. For FWGLI, the growth estimate was < -0.25. FWMFEAVAKETASFWRYLRA was tested, and the growth estimate was < -0.25. With FWPTCVRAHSAWSCKGYFWK the growth estimate was < -0.25. With FWRRRSNLGREGWTGQATIR the growth estimate was < -0.25. With FWVCIRRHPLNIGSADTSLG the growth estimate was < -0.25. FWVSIRLSGLCPFNGPGSFS was tested, and the growth estimate was < -0.25. In the case of FWVVPGKPWEITRQTFIDPN, the growth estimate is reported as < -0.25. For FYAGQGRRKCIHPGKIRFQL, the growth estimate was < -0.25. FYANVVPFLWGCIA was tested, and the growth estimate was < -0.25. For FYANWSGCSNK, the growth estimate was < -0.25. With FYKSGIRRAINS the growth estimate was < -0.25. In the case of FYQLMTDSTRTPQTPWSSV, the growth estimate is reported as < -0.25. FYQQDSSIAAGRQLIPGMIG was tested, and the growth estimate was < -0.25. With FYQRDTDAPYE the growth estimate was < -0.25. With FYRGHSHPGGCMNFVAS the growth estimate was < -0.25. With FYVELAGCGR the growth estimate was < -0.25. FYYLVPDVRSSKTWWGYGKL was tested, and the growth estimate was < -0.25. FYYSGIAGLLSAHMSEPTCT was tested, and the growth estimate was < -0.25. With GAAGGGLYYSANGRIIRAPW the growth estimate was < -0.25. In the case of GAATN, the growth estimate is reported as < -0.25. With GACC the growth estimate was < -0.25. With GACGPSIRHSGQQQGPTR the growth estimate was < -0.25. For GAFRSQVLSKCGNSIRSICE, the growth estimate was < -0.25. For GAGKSFVRPALRCASDWSTG, the growth estimate was < -0.25. In the case of GAGLLIREICLAISHD, the growth estimate is reported as < -0.25. GAGSTGTQERLYSSEF was tested, and the growth estimate was < -0.25. In the case of GAGWSLKVENGHVEVWSSGN, the growth estimate is reported as < -0.25. For GAI, the growth estimate was < -0.25. For GAIEIFSRGSNAHSPRDV, the growth estimate was < -0.25. With GAKLGTN the growth estimate was < -0.25. GALVGFLGRVALWKSGLPAY was tested, and the growth estimate was < -0.25. GALVIFECPRQYVDPGTFLL was tested, and the growth estimate was < -0.25. In the case of GANVVAKGRGRQKARLASFS, the growth estimate is reported as -0.241. With GAPGEPGPADNYI the growth estimate was < -0.25. In the case of GAPNAGKN, the growth estimate is reported as < -0.25. For GAPSSK, the growth estimate was < -0.25. GAPT was tested, and the growth estimate was < -0.25. For GAQSGTRV, the growth estimate was -0.208. For GARAPRNTEYQSPQPPWHHS, the growth estimate was < -0.25. In the case of GARF, the growth estimate is reported as < -0.25. For GARFGAAFRAFMAGGE, the growth estimate was < -0.25. With GARFLTVRDALISPVFCYWW the growth estimate was < -0.25. In the case of GARLLQH, the growth estimate is reported as < -0.25. GARMLTVADFLNNGVYLF was tested, and the growth estimate was < -0.25. With GARTKLRDQVTSLVDVGFAS the growth estimate was < -0.25. In the case of GASDFVSISLGTVVGVTMEP, the growth estimate is reported as < -0.25. GASDSRERGV was tested, and the growth estimate was < -0.25. With GASIIARLNVAKPKRRGRIE the growth estimate was < -0.25. In the case of GASTKILRKIVRRFYFRSNA, the growth estimate is reported as < -0.25. With GASTSTSSSSVRRSE the growth estimate was < -0.25. For GATLEMKRTIK, the growth estimate was < -0.25. For GATLLF, the growth estimate was < -0.25. In the case of GATYTF, the growth estimate is reported as < -0.25. With GAVGALQSNL the growth estimate was < -0.25. For GAVKSELDRAYQIPGPTKLE, the growth estimate was < -0.25. Substance GAVLIGILRQDKEVDLGGCF has a growth estimate of -0.246. GAYARLCTYSVVMAQLLTAG was tested, and the growth estimate was < -0.25. In the case of GAYLSNFAKEFDLMQSQFIS, the growth estimate is reported as < -0.25. For GCAACLVNCEGLPWLST, the growth estimate was -0.246. With GCASMTELRVQWRGGSTLAD the growth estimate was < -0.25. GCCLDVVG was tested, and the growth estimate was < -0.25. For GCEFNDQ, the growth estimate was < -0.25. GCGGGCRI was tested, and the growth estimate was < -0.25. GCGIGAPAVAVGSHLFKAGV was tested, and the growth estimate was < -0.25. For GCGVGDQSLESSIRTVIG, the growth estimate was < -0.25. For GCHWGCTGRKV, the growth estimate was < -0.25. For GCICALQWTEM, the growth estimate was < -0.25. GCIGKVSSRTRELRR was tested, and the growth estimate was < -0.25. GCKGEILPPVTSAYRSSLES was tested, and the growth estimate was < -0.25. GCKSASAMAWRNQ was tested, and the growth estimate was < -0.25. For GCLDKNDWTINSLWVNSVYG, the growth estimate was < -0.25. With GCLG the growth estimate was < -0.25. For GCLGSEDGSRGVPNEKGDWR, the growth estimate was < -0.25. GCLGSGTSRSDSS was tested, and the growth estimate was < -0.25. For GCLLDA, the growth estimate was < -0.25. For GCLPRVIYEVLTVLCLAHTC, the growth estimate was < -0.25. GCLSQICSGFYD was tested, and the growth estimate was < -0.25. In the case of GCLVLNLRVGRRKVRIFYRP, the growth estimate is reported as < -0.25. For GCLWGRRNNGRPDRVWWSH, the growth estimate was < -0.25. In the case of GCNRVYRRRAGDNILRTAVS, the growth estimate is reported as < -0.25. For GCPYSLLGGTDGRKVWCSLT, the growth estimate was < -0.25. With GCQLKARVLLHWASRRCVSV the growth estimate was < -0.25. GCQSQGSDSVEPKICG was tested, and the growth estimate was < -0.25. GCRGPSYTIRGRLH was tested, and the growth estimate was < -0.25. For GCRQSLPVANRLRPCSI, the growth estimate was < -0.25. GCSEAGDDTDSWTHADFGNA was tested, and the growth estimate was 0.183. With GCSEHIWRAPAVSALASLVS the growth estimate was < -0.25. GCTCGTCEVPRGGIYDKEAG was tested, and the growth estimate was < -0.25. GCTNRSHHNLGIHRSTLGVR was tested, and the growth estimate was < -0.25. GCTPVRRAHGSARLMRRISG was tested, and the growth estimate was < -0.25. For GCTRICTQ, the growth estimate was < -0.25. With GCYVSV the growth estimate was < -0.25. With GDA the growth estimate was -0.243. With GDAETSWPGVGL the growth estimate was < -0.25. GDFFTSLMVSCRSGSPSRGN was tested, and the growth estimate was < -0.25. In the case of GDGFQSHDRSR, the growth estimate is reported as < -0.25. In the case of GDGIYSLWRHADEPPWSFHG, the growth estimate is reported as < -0.25. With GDIASLRQLSGPLVRSIRRR the growth estimate was < -0.25. With GDIVNGNSKNRRAYSMCPRR the growth estimate was < -0.25. For GDKSKTITYSRAVYIALRPG, the growth estimate was < -0.25. GDNCRASCDLRTLLPALILL was tested, and the growth estimate was < -0.25.
